In PMC11624278:
No constants are given. Whether binding was seen depends on the method and setting. Binding seen in cells or lysates may run through a third protein. Here binding means that the protein was enriched with, or labelled near, the bait; the list need not be complete. A no says only that the protein was not detected with the bait.

Chains of the proteins cited; added tags and fusions are not shown. Residues count along the entry.
UniProt P08648, residues 42-1049: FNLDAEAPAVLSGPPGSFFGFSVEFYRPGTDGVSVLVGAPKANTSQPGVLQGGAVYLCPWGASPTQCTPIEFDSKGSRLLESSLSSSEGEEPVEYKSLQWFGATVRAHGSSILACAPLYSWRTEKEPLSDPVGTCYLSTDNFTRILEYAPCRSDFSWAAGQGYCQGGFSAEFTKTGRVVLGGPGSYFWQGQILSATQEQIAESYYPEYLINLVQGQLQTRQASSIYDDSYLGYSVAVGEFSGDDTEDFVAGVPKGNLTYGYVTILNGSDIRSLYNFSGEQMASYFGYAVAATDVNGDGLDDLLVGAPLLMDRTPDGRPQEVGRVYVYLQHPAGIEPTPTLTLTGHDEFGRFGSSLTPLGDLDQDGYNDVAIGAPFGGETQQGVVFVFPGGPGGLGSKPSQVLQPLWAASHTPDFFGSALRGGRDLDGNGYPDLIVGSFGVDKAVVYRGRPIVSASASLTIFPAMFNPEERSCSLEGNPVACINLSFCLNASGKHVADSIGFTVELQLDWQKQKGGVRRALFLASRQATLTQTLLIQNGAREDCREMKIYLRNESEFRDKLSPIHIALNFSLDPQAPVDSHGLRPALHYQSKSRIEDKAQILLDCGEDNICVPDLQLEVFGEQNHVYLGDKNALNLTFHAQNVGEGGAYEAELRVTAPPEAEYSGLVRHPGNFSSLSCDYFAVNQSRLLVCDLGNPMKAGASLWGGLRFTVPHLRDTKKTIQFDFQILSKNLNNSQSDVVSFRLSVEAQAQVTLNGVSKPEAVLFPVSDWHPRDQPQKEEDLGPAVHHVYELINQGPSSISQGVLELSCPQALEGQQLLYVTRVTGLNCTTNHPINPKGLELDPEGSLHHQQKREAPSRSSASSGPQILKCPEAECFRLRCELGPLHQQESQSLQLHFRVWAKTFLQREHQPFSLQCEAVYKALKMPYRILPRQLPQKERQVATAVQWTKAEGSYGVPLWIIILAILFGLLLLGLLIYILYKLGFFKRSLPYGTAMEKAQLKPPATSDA
UniProt P09055, residues 21-798: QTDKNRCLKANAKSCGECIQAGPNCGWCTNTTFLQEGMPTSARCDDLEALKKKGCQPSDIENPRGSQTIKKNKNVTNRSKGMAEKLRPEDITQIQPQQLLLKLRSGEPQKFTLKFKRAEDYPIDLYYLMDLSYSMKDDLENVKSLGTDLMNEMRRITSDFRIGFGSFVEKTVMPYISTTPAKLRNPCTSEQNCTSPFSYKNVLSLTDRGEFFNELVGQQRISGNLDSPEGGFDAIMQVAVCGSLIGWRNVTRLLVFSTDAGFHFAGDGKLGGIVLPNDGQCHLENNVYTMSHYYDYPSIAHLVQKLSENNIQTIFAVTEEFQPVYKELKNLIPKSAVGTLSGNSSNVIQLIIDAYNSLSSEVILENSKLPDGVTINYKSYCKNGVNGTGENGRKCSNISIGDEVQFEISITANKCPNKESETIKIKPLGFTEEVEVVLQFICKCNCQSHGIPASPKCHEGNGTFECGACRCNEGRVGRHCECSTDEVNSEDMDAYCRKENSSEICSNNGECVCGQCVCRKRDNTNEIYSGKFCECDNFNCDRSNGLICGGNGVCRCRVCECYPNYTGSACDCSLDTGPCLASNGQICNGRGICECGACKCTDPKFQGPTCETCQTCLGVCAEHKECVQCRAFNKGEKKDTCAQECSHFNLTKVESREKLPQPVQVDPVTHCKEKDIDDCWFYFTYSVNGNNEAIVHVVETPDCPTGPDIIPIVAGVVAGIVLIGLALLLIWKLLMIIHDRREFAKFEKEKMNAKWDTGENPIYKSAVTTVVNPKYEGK
UniProt P70398: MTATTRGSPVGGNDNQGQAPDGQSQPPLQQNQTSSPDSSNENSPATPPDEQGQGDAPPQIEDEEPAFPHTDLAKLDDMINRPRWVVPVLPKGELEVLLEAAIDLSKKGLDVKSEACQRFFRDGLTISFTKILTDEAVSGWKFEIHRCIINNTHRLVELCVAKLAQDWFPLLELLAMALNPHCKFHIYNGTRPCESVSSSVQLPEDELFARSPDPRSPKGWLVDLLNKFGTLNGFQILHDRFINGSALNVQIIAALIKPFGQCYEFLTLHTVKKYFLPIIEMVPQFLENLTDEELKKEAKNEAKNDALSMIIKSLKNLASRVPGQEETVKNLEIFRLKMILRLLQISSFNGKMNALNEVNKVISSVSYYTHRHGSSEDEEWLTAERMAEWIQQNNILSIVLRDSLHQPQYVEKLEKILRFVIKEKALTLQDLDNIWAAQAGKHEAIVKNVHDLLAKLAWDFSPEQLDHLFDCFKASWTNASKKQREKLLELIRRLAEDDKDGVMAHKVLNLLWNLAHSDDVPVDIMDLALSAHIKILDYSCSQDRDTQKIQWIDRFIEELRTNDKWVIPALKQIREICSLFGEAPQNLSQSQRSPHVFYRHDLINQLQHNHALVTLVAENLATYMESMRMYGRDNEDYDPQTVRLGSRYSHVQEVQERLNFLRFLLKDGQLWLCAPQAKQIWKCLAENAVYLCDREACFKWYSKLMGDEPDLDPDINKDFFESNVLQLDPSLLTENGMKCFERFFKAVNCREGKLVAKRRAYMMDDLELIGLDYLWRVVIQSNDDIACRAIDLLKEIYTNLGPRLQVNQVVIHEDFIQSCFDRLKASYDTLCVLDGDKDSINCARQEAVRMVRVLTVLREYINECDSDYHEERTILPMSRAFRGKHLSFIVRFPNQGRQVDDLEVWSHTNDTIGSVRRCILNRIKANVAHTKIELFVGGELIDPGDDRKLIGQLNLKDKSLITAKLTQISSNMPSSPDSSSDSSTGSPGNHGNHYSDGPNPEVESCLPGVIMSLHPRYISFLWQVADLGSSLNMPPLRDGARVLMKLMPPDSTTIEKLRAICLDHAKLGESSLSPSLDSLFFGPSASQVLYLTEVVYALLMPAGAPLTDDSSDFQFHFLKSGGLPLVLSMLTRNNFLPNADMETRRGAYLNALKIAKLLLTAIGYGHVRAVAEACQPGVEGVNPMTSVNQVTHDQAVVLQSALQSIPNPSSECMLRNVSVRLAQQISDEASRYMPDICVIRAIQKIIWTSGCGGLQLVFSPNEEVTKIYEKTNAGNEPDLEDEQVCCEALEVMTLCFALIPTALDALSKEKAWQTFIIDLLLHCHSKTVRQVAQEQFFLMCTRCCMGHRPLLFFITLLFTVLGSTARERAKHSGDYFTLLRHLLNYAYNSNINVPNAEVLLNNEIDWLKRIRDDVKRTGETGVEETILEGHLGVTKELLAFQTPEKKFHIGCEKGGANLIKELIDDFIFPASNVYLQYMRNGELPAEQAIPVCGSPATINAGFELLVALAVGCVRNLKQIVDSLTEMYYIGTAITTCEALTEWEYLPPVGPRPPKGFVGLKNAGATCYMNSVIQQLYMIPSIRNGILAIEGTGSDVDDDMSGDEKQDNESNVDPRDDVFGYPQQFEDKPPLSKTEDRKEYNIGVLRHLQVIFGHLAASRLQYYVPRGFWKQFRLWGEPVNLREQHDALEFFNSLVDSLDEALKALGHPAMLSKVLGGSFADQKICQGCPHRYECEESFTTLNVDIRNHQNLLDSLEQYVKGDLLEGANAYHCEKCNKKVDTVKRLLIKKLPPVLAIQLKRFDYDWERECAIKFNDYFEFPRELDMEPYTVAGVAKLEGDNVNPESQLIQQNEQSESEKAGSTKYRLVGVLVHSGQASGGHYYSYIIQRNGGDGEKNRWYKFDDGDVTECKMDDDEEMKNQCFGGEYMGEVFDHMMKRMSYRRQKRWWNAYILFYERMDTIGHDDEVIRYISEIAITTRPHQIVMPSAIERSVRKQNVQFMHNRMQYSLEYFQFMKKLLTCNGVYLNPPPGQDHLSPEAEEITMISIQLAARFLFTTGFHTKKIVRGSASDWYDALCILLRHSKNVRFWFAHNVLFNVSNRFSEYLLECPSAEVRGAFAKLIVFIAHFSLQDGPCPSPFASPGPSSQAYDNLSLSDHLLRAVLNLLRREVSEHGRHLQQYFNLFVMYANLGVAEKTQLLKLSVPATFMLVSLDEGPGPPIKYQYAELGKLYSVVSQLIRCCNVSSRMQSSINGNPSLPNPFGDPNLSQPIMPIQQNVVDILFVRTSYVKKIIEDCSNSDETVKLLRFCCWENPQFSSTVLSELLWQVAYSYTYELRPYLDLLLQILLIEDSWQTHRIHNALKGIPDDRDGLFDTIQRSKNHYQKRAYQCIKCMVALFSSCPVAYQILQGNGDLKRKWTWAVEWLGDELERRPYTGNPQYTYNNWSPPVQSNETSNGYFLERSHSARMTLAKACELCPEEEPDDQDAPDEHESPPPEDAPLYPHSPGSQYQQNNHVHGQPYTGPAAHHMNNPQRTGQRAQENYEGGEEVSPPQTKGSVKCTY
UniProt Q9D9M2: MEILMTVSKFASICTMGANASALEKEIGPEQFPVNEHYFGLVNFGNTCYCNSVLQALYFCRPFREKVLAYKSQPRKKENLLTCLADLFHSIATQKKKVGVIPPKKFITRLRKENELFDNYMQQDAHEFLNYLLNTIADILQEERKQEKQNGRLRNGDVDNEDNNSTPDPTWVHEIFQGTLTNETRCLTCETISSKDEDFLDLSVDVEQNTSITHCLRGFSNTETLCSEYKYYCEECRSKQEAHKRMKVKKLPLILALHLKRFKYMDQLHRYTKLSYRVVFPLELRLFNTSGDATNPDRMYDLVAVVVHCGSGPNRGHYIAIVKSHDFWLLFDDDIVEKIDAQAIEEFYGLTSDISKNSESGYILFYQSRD
UniProt Q9JMA1: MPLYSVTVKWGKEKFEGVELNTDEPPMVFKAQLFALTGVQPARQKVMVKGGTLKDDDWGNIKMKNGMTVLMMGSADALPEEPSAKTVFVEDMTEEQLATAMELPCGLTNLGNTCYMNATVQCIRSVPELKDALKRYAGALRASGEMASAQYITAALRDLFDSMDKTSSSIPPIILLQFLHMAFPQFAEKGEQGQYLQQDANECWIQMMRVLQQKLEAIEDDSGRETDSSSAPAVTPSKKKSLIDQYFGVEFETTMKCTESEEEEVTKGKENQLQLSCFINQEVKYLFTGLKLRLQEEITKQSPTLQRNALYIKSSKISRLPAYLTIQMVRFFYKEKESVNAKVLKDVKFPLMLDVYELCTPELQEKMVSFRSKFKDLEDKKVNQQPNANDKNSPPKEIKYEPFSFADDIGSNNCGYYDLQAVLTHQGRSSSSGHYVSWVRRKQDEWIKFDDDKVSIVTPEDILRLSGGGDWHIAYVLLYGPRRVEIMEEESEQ
UniProt P62069: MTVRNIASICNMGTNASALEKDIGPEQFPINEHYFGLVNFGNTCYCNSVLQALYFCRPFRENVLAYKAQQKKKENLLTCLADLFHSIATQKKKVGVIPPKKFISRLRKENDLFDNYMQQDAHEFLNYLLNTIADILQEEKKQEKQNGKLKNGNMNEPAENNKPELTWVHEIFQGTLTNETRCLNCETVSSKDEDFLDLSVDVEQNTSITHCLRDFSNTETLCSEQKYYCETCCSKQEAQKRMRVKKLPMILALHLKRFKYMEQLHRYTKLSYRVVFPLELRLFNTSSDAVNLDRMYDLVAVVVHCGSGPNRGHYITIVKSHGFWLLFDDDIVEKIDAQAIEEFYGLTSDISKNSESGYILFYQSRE
UniProt Q8BH57: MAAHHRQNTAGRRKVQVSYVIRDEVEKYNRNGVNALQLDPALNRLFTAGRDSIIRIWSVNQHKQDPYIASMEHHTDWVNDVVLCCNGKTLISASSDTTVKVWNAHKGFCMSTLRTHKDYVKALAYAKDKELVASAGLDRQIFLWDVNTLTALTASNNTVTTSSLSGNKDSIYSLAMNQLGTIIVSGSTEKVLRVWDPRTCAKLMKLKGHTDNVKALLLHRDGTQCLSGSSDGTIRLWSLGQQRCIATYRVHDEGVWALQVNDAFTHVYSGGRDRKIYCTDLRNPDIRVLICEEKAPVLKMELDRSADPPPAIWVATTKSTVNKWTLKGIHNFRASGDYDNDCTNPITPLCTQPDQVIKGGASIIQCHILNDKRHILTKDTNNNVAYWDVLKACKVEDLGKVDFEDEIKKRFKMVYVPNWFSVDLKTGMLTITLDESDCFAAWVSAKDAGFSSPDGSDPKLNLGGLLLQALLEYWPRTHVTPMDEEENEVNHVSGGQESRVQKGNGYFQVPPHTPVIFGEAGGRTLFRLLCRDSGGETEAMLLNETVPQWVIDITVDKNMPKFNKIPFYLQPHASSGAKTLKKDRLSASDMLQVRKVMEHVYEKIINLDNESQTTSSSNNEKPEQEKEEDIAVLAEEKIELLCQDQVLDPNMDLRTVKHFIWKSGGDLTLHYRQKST

B1: BAP1 (enzyme, UniProt Q99PU7 1-728)
chain: MNKGWLELESDPGLFTLLVEDFGVKGVQVEEIYDLQSKCQGPVYGFIFLFKWIEERRSRRKVSTLVDDTSVIDDDIVNNMFFAHQLIPNSCATHALLSVLLNCSNVDLGPTLSRMKDFTKGFSPESKGYAIGNAPELAKAHNSHARPEPRHLPEKQNGLSAVRTMEAFHFVSYVPITGRLFELDGLKVYPIDHGPWGEDEEWTDKARRVIMERIGLATAGEPYHDIRFNLMAVVPDRRIKYETRLHVLKVNRQTVLEALQQLIRVTQPELIQTHKSQESQLPEESKPASSKSPLGLEAGRTPVASECTQTDGAEEVAGSCPQTTTHSPPSKCKLVVKPPGSSLNGVPPNPAPIVQRLPAFLDNHNYAKSPMQEEEDLAAGVGRSRVPVRAPQQYSEDEDDYEDEDEDVQNTNPAIRYKRKGTGKPGSLSNSSDGQLSVLQPNTINVLTEKLQESQKDLSVPLSIKTSSGAGSPAVAVPTHSQPSPTPSNESTDTASEIGSAFNSPLRSPIRSANPTRPSSPVTSHISKVLFGEDDSLLRVDCIRYNRAVRDLGPVISTGLLHLAEDGVLSPLALTEGGKGSSPSTRSSQGSQGSSGLEEKEVVEVTESRDKPGLNRSSEPLSGEKYSPKELLALLKCVEAEIANYEACLKEEVEKRKKFKIDDQRRTHNYDEFICTFISMLAQEGMLANLVEQNISVRRRQGVSIGRLHKQRKPDRRKRSRPYKAKRQ
B2: OTUD6B (enzyme, UniProt Q8K2H2 1-294)
chain: MEEVVAEELDDEEQLVRRHRKEKKELQAKIQGMKNAVPKNDKKRRKQLTEDVAKLEREMEQKHREELEQLKQLTFKDSKIDSVAVNISNLVLENQPPRISKAQKRREKKAALEKEREERIAEAEIENLSGARHLESEKLAQILAARELEIKQIPSDGHCMYGALEDQLREQDCALTVASLRRQTAEYMQTHSDDFLPFLTNPSTGDMYTPEEFGKYCDDIVNTAAWGGQLELRALSHILQTPIEILQADAPPIIVGEEYPRNPLVLVYMRHAYGLGEHYNSVTRLVNSATENCS

Legend:
[1] = molecular target: miniTurbo-tagged Itga5 (human) (UniProt P08648); test: proximity labelling; miniTurbo on the cytosolic tail of human Itga5 in mouse kidney fibroblasts; 50 µM biotin 30 min at 37 °C; streptavidin magnetic beads; label-free MS; Itgb1-KO fibroblasts expressing Itga5-miniTurbo as control
[2] = molecular target: β1 integrin (Itgb1) (mouse (endogenous in mouse kidney fibroblasts)) (UniProt P09055); test: cross-linking + affinity purification with mass spectrometry; fibroblasts cross-linked in vivo with DSP (0.1 mg/ml in PBS, 30 min on ice); IP with homemade anti-β1 integrin antibody and protein A/G agarose; MS

Molecule | binding [1] | binding [2]
USP9X (from UniProt P70398 1-2559) (enzyme) | no binding | –
USP12 (from UniProt Q9D9M2 1-370) (enzyme) | binds | no binding
USP14 (from UniProt Q9JMA1 1-493) (enzyme) | no binding | –
USP46 (from UniProt P62069 1-366) (enzyme) | binds | no binding
WDR48 (from UniProt Q8BH57 1-676) | binds | no binding
B1 | no binding | –
B2 | no binding | –
